Results: patent US10087225B2, “Formulation of MK2 inhibitor peptides” (MOERAE MATRIX, INC., priority 2015, dated 2018)
Part of at least one peptide drawing is inferred or uncertain, most often the ends.

How the values were obtained:
[1] = tested on: jugular vein grafts; assay: Rabbit bilateral jugular vein graft interposition model; type: in vivo; conditions: 30 μM, 30 min ex vivo, 28 days post-op
[2] = tested on: endothelial cells; assay: MCP-1 production in TNFα stimulated endothelial cells; type: cell-based; conditions: 3 and 5 days post-treatment, 10 μM
[3] = tested on: human saphenous vein (HSV); assay: Inhibition of phenylephrine-induced HSV contraction; conditions: 2 h treatment
[4] = tested on: HCAVSMCs; assay: Microscopic analysis of intracellular trafficking (Lysotracker colocalization); type: cell-based, human
[5] = tested on: erythrocytes; assay: pH-dependent membrane disruption red blood cell hemolysis assay; type: cell-based, human; conditions: pH range tested
[6] = tested on: HCAVSMCs; assay: MCP-1 ELISA in TNFα stimulated vascular smooth muscle cells; type: cell-based, human; conditions: 3 and 5 days post-treatment, 10 μM

H-YARAAARQARAKALARQLGVAA-OH [MMI-0100]
neointima formation [1]: did not produce any significant change | inhibition of MCP-1 production [2]: significantly decreased at 3 and 5 days post-treatment | PE-induced HSV contraction [3]: significantly inhibited | MK2i colocalized with the Lysotracker dye [4]: Approximately 90% | membrane disruption [5]: negligible | inhibition of MCP-1 production [6]: significantly decreased at 3 and 5 days post-treatment
